Laboratory results taken from PubChem BioAssay AID540276 (National Center for Advancing Translational Sciences (NCATS), 2011).
The campaign covered roughly 300,000 compounds. About 5,400 (1.8%) were called active. The shares of active, inactive and inconclusive entries below differ from those in the screen. Calls come from the whole dose curve; tested in HEK293 cells. Potencies beside an inconclusive call are fits to weak or partial responses and may not hold up.

experiment: qHTS for inhibitors of binding or entry into cells for Marburg Virus; details: Marburg virus pseudotyped entry inhibition, cell reporter; series mostly up to 37.8 µM
Potency is the fitted concentration of half-maximal effect.

| SMILES | Potency |
| --- | --- |
| O=C(Oc1c(CN2CCOCC2)cc(Cl)c2cccnc12)c1cccs1 | active: 10 µM |
| Nc1ccc2c(c1)nnn2-c1ccccc1 | inconclusive: 11.2 µM [inhibitor, partial curve, poor fit] |
| Cc1cccc(-n2c(-c3ccco3)nc3c(cnn3-c3ccc(F)cc3)c2=O)c1 | inactive |
| COc1ccc(CCn2c(=N)c(C(=O)NCc3ccco3)cc3c(=O)n4cccc(C)c4nc32)cc1 | inconclusive: 35.5 µM [inhibitor, single point] |
| O=C(Nc1nc(-c2ccccc2)c(C(=O)c2ccccc2)s1)c1ccc(S(=O)(=O)N2CCCCC2)cc1 | inconclusive: 1.26 µM [inhibitor, partial curve] |
| S=C(Nc1ccccc1)Nc1ccc2ccccc2c1 | inconclusive: 6.31 µM [activator, partial curve, poor fit] |
| O=[N+]([O-])c1ccc(NC(=S)NCc2ccc(F)cc2)cc1 | inconclusive: 2.51 µM [inhibitor, full curve, poor fit] |
| O=[N+]([O-])c1cccnc1SCc1c(F)cccc1Cl | inconclusive: 35.5 µM [inhibitor, single point] |
| COc1cccc(NC(=O)c2cccc(S(=O)(=O)N3CCN(Cc4ccccc4)CC3)c2)c1 | inconclusive: 10 µM [inhibitor, partial curve, poor fit] |
| Cc1[nH]n(-c2ccccc2)c(=O)c1N=Nc1ccc2c(c1)OCO2 | inconclusive: 3.98 µM [activator, single point] |
| NC(=O)/C=C\C(=O)Nc1cccc(C(F)(F)F)c1 | active: 9.2 µM |
| Cc1sc2nc(CN3CCOCC3)nc(Cl)c2c1C | inconclusive: 20.6 µM [inhibitor, single point] |
| Cc1cc(O)cc(O)c1C(=O)Cc1ccccc1 | inconclusive: 3.16 µM [activator, single point] |
| CCOC(=O)c1cnc(SCC(=O)Nc2cc(OC)ccc2OC)nc1N | inconclusive: 12.6 µM [inhibitor, single point] |
| CCOc1ccc(NC(=O)CC2C(=O)N(c3ccc(OC)cc3)C(=O)N2CCc2cccs2)cc1 (centres undefined) | inconclusive: 2.51 µM [inhibitor, partial curve, poor fit] |
| COc1cccc(CC(=O)N2CCC(n3nccc3NC(=O)C3CC3)CC2)c1 | inactive |
| Cn1nc(-c2ccccc2)c(CO)c1Sc1ccccc1 | inconclusive: 35.5 µM [inhibitor, single point] |
| COc1ccc(OCCNC(=O)C(c2ccccc2)c2ccccc2)cc1 | inconclusive: 1.26 µM [activator, single point] |
| Cc1nn(-c2ccccc2)c(Cl)c1/C=N/NC(=O)c1ccco1 | inconclusive: 2.59 µM [activator, full curve, poor fit] |
| O=C(NCc1ccccc1)c1cccc(NC(=O)c2ccco2)c1 | inconclusive: 5.62 µM [inhibitor, partial curve, poor fit] |
| O=C(CCCc1nc2ccccc2s1)N1CCN(c2ccccc2)CC1 | inconclusive: 0.316 µM [activator, partial curve, poor fit] |
| CCOc1ccc(S(=O)(=O)N2CCN(c3ccccc3OC)CC2)c2cccnc12 | inconclusive: 17.8 µM [inhibitor, partial curve, poor fit] |

| SMILES | Potency |
| --- | --- |
| O=C1[C@H]2[C@H]3[C@H](O)[C@H](O)C/C(=N/OC[C@@H](O)COCc4ccco4)[C@@H]3CC[C@@H]2C(=O)N1C[C@@H]1CCCO1 | inactive |
| COc1ccccc1C(=O)NC(CCSC)C(=O)NCC(c1cccs1)N1CCOCC1 (centres undefined) | inactive |
| COc1cccc(C(=O)NCCN2CCN(c3ccc(Cl)cc3)CC2)c1 | inconclusive: 0.0398 µM [inhibitor, full curve, poor fit] |
| O=C(CSc1ccccc1)NCCCc1ccccc1 | inactive |
| Cc1ccc(C)c(NC(=O)Nc2csc3c2CCCC3)c1 | inconclusive: 2.51 µM [inhibitor, partial curve, poor fit] |
| C=C1SC(Nc2c(C)cccc2C)=NC12CCCCC2 | inconclusive: 6.31 µM [inhibitor, partial curve, poor fit] |
| Cc1nn(-c2ccccc2)c2c1C(=O)N(Cc1ccccc1)C(=O)C(C)(C)C2 | inconclusive: 1.41 µM [inhibitor, partial curve, poor fit] |
| CN=c1scc(-c2ccc(OC)cc2)n1/N=C(\C)c1cccnc1 | inconclusive: 35.5 µM [inhibitor, single point] |
| COC(=O)CSc1nnc(CNC(=O)c2ccc(OC)c(OC)c2)n1C | inactive |
| Cc1nn2c(-c3cccnc3)ccnc2c1-c1ccccc1 | inconclusive: 0.92 µM [inhibitor, single point] |
| COc1ccccc1NC(=O)Nc1ccc(Br)cn1 | inactive |
| CC(/C=N/NC(=O)c1cnccn1)=C\c1ccco1 | inactive |
| CC(C)(C)c1ccc(OCCN2CCCC2)cc1 | inconclusive: 29.1 µM [inhibitor, single point] |
| C/C(CC(=O)NC1CCCCC1)=N\NC(=O)c1ccccn1 | inconclusive: 31.6 µM [activator, single point] |
| Cc1ccc(C(=O)CSc2nnc(CNc3nc(-c4ccccc4)cs3)n2C)cc1 | inconclusive: 11.2 µM [inhibitor, partial curve, poor fit] |
| COCCNC(=O)/C(C#N)=C/c1c(N2CCN(C)CC2)nc2c(C)cccn2c1=O | inconclusive: 0.0891 µM [inhibitor, full curve, poor fit] |
| Cc1c(C(=O)N2CCN(S(=O)(=O)c3ccccc3)CC2)oc2ccccc12 | inconclusive: 0.708 µM [activator, partial curve, poor fit] |
| O=C(Nc1ccc(F)cc1)N1CCc2ccccc2C1 | inconclusive: 3.16 µM [inhibitor, single point] |
| N/C(=N/OC(=O)c1ccccc1Cl)c1ncc([N+](=O)[O-])s1 | inconclusive: 11.2 µM [inhibitor, partial curve, poor fit] |
| CCOC(=O)C=CCCCC=CC(=O)c1ccccc1 | inconclusive: 0.299 µM [inhibitor, partial curve, poor fit] |
| COc1ccc(N(CC(=O)Nc2c(C)cccc2C)S(=O)(=O)c2ccccc2[N+](=O)[O-])c(OC)c1 | inconclusive: 2.51 µM [inhibitor, partial curve, poor fit] |
| CCOC(=O)c1cnc2nc(NCc3ccc(OCC)cc3)[nH]n2c1=O | inactive |

No new results follow: an excerpt of the list.

| SMILES | Potency |
| --- | --- |
| Cc1cccc(-n2c(-c3ccco3)nc3c(cnn3-c3ccc(F)cc3)c2=O)c1 | inactive |
| COc1ccc(CCn2c(=N)c(C(=O)NCc3ccco3)cc3c(=O)n4cccc(C)c4nc32)cc1 | inconclusive: 35.5 µM [inhibitor, single point] |
| O=C(Nc1nc(-c2ccccc2)c(C(=O)c2ccccc2)s1)c1ccc(S(=O)(=O)N2CCCCC2)cc1 | inconclusive: 1.26 µM [inhibitor, partial curve] |
| S=C(Nc1ccccc1)Nc1ccc2ccccc2c1 | inconclusive: 6.31 µM [activator, partial curve, poor fit] |
| O=[N+]([O-])c1ccc(NC(=S)NCc2ccc(F)cc2)cc1 | inconclusive: 2.51 µM [inhibitor, full curve, poor fit] |
| O=[N+]([O-])c1cccnc1SCc1c(F)cccc1Cl | inconclusive: 35.5 µM [inhibitor, single point] |

The list continues:

| SMILES | Potency |
| --- | --- |
| CCc1c(C(=O)OC)ncc2[nH]c3cc(OC)c(OC)cc3c12 | inconclusive: 0.0158 µM [inhibitor, full curve, poor fit] |
| COCCNC(=O)C(c1ccc(C)cc1)N(C(=O)CCC(=O)Nc1ccccn1)c1cccc(C)c1 (centres undefined) | inconclusive: 25.1 µM [inhibitor, single point] |
| CCc1ccnc(NC(=O)Nc2ccc(OCc3ccccc3)cc2)c1 | inconclusive: 35.5 µM [activator, single point] |
| O=C1/C(=C/c2cccnc2)SC(=S)N1NS(=O)(=O)c1ccccc1 | inconclusive: 1.12 µM [inhibitor, partial curve] |
| COc1cccc(-c2nc(N3CC(C)CC(C)C3)c3ccccc3n2)c1O (centres undefined) | inconclusive: 1.26 µM [activator, single point] |
| CC(Oc1ccccc1Cl)C(=O)Nc1ccc(S(=O)(=O)N2CCN(C)CC2)cc1 (centres undefined) | inconclusive: 28.2 µM [inhibitor, partial curve, poor fit] |
| Cc1ccc(C)c(N2CCN(C(=O)C3CCN(S(=O)(=O)c4cccc5nsnc45)CC3)CC2)c1 | inconclusive: 35.5 µM [inhibitor, single point] |
| Cc1cc(-c2nc3ncccc3o2)ccc1NC(=O)COc1cc(C)c(Cl)c(C)c1 | inactive |
| Cn1c(N2CCN(C(c3ccccc3)c3ccccc3)CC2)nc2c1c(=O)[nH]c(=O)n2C | inconclusive: 6.31 µM [inhibitor, partial curve, poor fit] |
| CCC(C(=O)NCCc1cc(OC)ccc1OC)n1nc(C)c2sc3ccccc3c2c1=O (centres undefined) | inactive |
| COc1cc(Cl)c(CN2CCCC(CO)(Cc3ccccc3)C2)cc1OC (centres undefined) | inconclusive: 7.94 µM [inhibitor, partial curve, poor fit] |
| CCCCn1c(O)c(C(CC)=NC(C)c2ccccc2)c(=O)[nH]c1=O (centres undefined) | inconclusive: 8.2 µM [inhibitor, single point] |
| CCCCC(=O)N/N=C/c1ccc(N2CCOCC2)c([N+](=O)[O-])c1 | inconclusive: 35.5 µM [inhibitor, single point] |
| CN1CCN(C2=Cc3ccc(Cl)cc3Sc3ccc(F)cc32)CC1 | active: 7.94 µM |
| Cc1cc(C)nc(N/N=C/C2=C(N3CCOCC3)C(=C/c3ccccc3)/CC2)n1 | inconclusive: 11.2 µM [inhibitor, single point] |
| CC1Cc2ccccc2N1S(=O)(=O)c1cccc(C(=O)NCC(c2ccco2)N2CCCC2)c1 (centres undefined) | inconclusive: 17.8 µM [inhibitor, single point] |
| Cc1c(C(=O)OCCOc2ccccc2)[nH]c2c1C(=O)CC(c1ccccc1Cl)C2 (centres undefined) | inconclusive: 6.31 µM [inhibitor, single point] |
| O=S(=O)(Cc1ccc(Cl)cc1)Nc1ccc(Cl)cn1 | inconclusive: 35.5 µM [activator, partial curve, poor fit] |
| CCOC(=O)c1cccc(NC(=O)c2nn(-c3ccc(OC)cc3)c(=O)c3c2c2ccccc2n3C)c1 | inactive |
| COc1ccc(CCNC(=O)c2cc3c(=O)n4cccc(C)c4nc3n(Cc3ccco3)c2=N)cc1OC | inconclusive: 10 µM [inhibitor, partial curve, poor fit] |
